Experimental data reported in PubChem BioAssay AID504467 (National Center for Advancing Translational Sciences (NCATS), 2011).
In all, about 330,000 compounds went through this assay and about 7,700 (2.3%) were called active. The shares of active, inactive and inconclusive entries below differ from those in the screen. The call rests on the fitted dose curve; in most records, active means well fitted inhibition curve with a large enough effect; inconclusive means small, poorly fitted or top-dose-only effect, or effect the other way; inactive means flat fitted curve, though single readings scatter. Potencies of inconclusive entries are doubtful fits and often do not repeat.
Potency means the concentration at half of the fitted maximal effect.

Assay: qHTS screen for small molecules that inhibit ELG1-dependent DNA repair in human embryonic kidney (HEK293T) cells expressing luciferase-tagged ELG1; further: nearly all actives have a fitted effect of over 55% in size
Conditions: HEK293T ELG1-luciferase reporter, luminescence, 16 h, DNA damage induced by 5-fluorouridine; series mostly up to 46.1 µM
In short: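 DMSO vehicle served as the neutral condition. Each well held 2,000 cells given 5-fluorouridine plus compound; after 16 hr at 37 °C/5% CO2, ONE-Glo was added and luciferase measured 30 min later.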
For `CN1C[C@@H]2C[C@@H](c3cccn3-c3nccs3)N3CCC[C@@]23C1=O`, the Potency was “inactive”. With `Cn1c(=O)c2ncn(CC(=O)N=Nc3c(O)[nH]c4ccccc34)c2n(C)c1=O` the Potency was inconclusive: 0.82 µM [inhibitor, partial curve]. With `NC(=O)c1ccccc1OCC(=O)Nc1ccc2c(c1)OCCO2` the Potency was inconclusive: 25.9 µM [activator, single point]. With `CCOC(=O)N1CCN(C(=O)CSCC(=O)Nc2nc(-c3cccs3)cs2)CC1` the Potency was active: 25.9 µM. With `NNC(=O)c1[nH]c2ccc([N+](=O)[O-])cc2c1-c1ccccc1` the Potency was inconclusive: 23.1 µM [inhibitor, single point]. In the case of `O=c1nc2sc3ccccc3n2c(=O)n1-c1cccc(Cl)c1`, the Potency is reported as inconclusive: 16.4 µM [activator, partial curve]. In the case of `O=[N+]([O-])c1ccc(N=Cc2sc3ccccc3c2O)cc1`, the Potency is reported as inconclusive: 5.17 µM [activator, full curve]. In the case of `Cc1ccccc1-c1nc(-c2ccc(NC(=O)c3ccc(Br)o3)cc2)no1`, the Potency is reported as inconclusive: 2.91 µM [activator, full curve, poor fit]. For `CCCC(=O)N(CCc1ccc(OC)cc1)Cc1nc2ccccc2c(=O)[nH]1`, the Potency was inconclusive: 29.1 µM [inhibitor, single point]. For `O=C(NCc1cccs1)c1ccc2c(c1)OCCO2`, the Potency was inconclusive: 29.1 µM [activator, single point]. In the case of `CC(=O)N(CCN(C(C)=O)c1ccccc1)c1ccccc1`, the Potency is reported as “inactive”. For `COc1cc(NC(=O)c2ccc(C(C)(C)C)cc2)c(OC)cc1NC(=O)CN1CCCCC1`, the Potency was inconclusive: 1.83 µM [inhibitor, full curve, poor fit]. With `Cc1ccc(NS(=O)(=O)c2ccc3c(c2)CCC(=O)N3)cc1C` the Potency was inconclusive: 25.9 µM [inhibitor, single point]. In the case of `Cc1ccc(OCC(=O)N(Cc2ccco2)C2CCS(=O)(=O)C2)cc1C` (configuration not stated), the Potency is reported as “inactive”. In the case of `O=C(CSCC(=O)Nc1cccc2ccccc12)Nc1cccc2ccccc12`, the Potency is reported as inconclusive: 29.1 µM [inhibitor, single point]. In the case of `Cn1cc(CC(=O)Nc2cccc(C#N)c2)c2ccccc21`, the Potency is reported as inconclusive: 20.6 µM [inhibitor, single point]. For `CCS(=O)(=O)CCSc1nc2ccccc2o1`, the Potency was “inactive”. For `Cc1ccc(/C=N/NC(=O)c2c[nH]c3ccccc23)s1`, the Potency was inconclusive: 17.8 µM [activator, single point]. With `Cc1[nH]c2ccc(-c3nnc(SCC(=O)NCc4ccco4)n3Cc3ccccc3)cc2c1C` the Potency was inconclusive: 18.4 µM [inhibitor, single point]. With `O=C(CCn1nc(-c2ccccc2)c2ccccc2c1=O)NCC1CCCO1` (configuration not stated) the Potency was inconclusive: 23.1 µM [activator, single point]. With `Cc1cccc(N2CCN(C(=O)c3c(-c4ccccc4)noc3C)CC2)c1C` the Potency was inconclusive: 2.59 µM [inhibitor, partial curve, poor fit]. In the case of `COC(=O)c1ccc(NC(=O)Cc2ccc(F)cc2)cc1`, the Potency is reported as “inactive”. For `COc1cc(/C(C#N)=C/c2ccccc2)c([N+](=O)[O-])cc1OC`, the Potency was inconclusive: 32.6 µM [inhibitor, single point]. With `c1ccc(-c2nc3ccccc3[nH]2)nc1` the Potency was inconclusive: 9.2 µM [activator, partial curve]. In the case of `CCOc1cc(C2C(C(=O)OC(C)C)=C(C)NC3=C2C(=O)CCC3)cc([N+](=O)[O-])c1O` (configuration not stated), the Potency is reported as inconclusive: 18.3 µM [activator, partial curve, poor fit]. With `O=C(Nc1ccc(Br)c(Cl)c1)c1ccco1` the Potency was inconclusive: 13 µM [activator, partial curve]. For `Cc1c(C(=O)NCC2CCCO2)oc2c(Cl)cccc12` (configuration not stated), the Potency was inconclusive: 25.9 µM [activator, single point]. With `CCOC(=O)c1c(C)[nH]c(C=Nc2ccc(OC)cc2)c1O` the Potency was inconclusive: 9.2 µM [activator, partial curve]. With `O=C(OCC(=O)N1CCCCC1)c1cc(=O)[nH]c2ccccc12` the Potency was inconclusive: 18.3 µM [activator, partial curve]. With `CCN1C(=NCc2ccco2)N[C@@H](c2cccc(F)c2)C(C(=O)OC)=C1C` the Potency was “inactive”. For `OCc1cn(-c2ccccc2)nc1-c1ccco1`, the Potency was inconclusive: 20.6 µM [activator, partial curve]. For `CC(C)(C)c1ccc(-c2cc(N)n[nH]2)cc1`, the Potency was inconclusive: 18.4 µM [activator, single point]. In the case of `COc1cc(C2C3=C(CC(C)(C)CC3=O)OC(N)=C2[N+](=O)[O-])ccc1O` (configuration not stated), the Potency is reported as inconclusive: 16.4 µM [activator, partial curve, poor fit]. With `COC(=O)COc1cccc(-n2cnnn2)c1` the Potency was “inactive”. With `COc1ccc(S(=O)(=O)N(C)CC(=O)Nc2ccc3c(c2)OCO3)cc1` the Potency was inconclusive: 5.8 µM [inhibitor, partial curve, poor fit]. In the case of `Cc1c(C(=O)O)c(C(=O)O)c2n1CCS2`, the Potency is reported as inconclusive: 0.206 µM [activator, partial curve, poor fit]. In the case of `Cc1cccc(C2=NNC(=O)C(c3ccc(Cl)cc3)C2)c1` (configuration not stated), the Potency is reported as inconclusive: 29.1 µM [inhibitor, single point]. In the case of `COc1cc(C)c(CN2CCSCC2)cc1C`, the Potency is reported as inconclusive: 7.08 µM [activator, full curve]. For `COC(=O)c1ccc(CSc2nc3c(c(=O)n2-c2ccc(Br)cc2)SCC3)o1`, the Potency was inconclusive: 29.1 µM [inhibitor, single point]. For `COc1cccc(NC(=O)CN(C)C(=O)c2ccccc2OCC(=O)Nc2cccc(C(F)(F)F)c2)c1`, the Potency was inconclusive: 20.6 µM [inhibitor, single point]. In the case of `Cc1[nH]c2ccccc2c1C(=O)CSC(=S)N(C)C`, the Potency is reported as inconclusive: 20.6 µM [activator, partial curve]. In the case of `C[C@@H]1CCCCCCCCC(=O)OCCN(C(=O)OC(C)(C)C)[C@H](C)CCCCCCCCC(=O)OCCN1C(=O)OC(C)(C)C`, the Potency is reported as inconclusive: 29.1 µM [activator, partial curve, poor fit].
